This experiment deals with T1, OsABI5 fused to cEYFP (rice (Oryza sativa L.)) (UniProt Q8RZ35).
T1 sequence: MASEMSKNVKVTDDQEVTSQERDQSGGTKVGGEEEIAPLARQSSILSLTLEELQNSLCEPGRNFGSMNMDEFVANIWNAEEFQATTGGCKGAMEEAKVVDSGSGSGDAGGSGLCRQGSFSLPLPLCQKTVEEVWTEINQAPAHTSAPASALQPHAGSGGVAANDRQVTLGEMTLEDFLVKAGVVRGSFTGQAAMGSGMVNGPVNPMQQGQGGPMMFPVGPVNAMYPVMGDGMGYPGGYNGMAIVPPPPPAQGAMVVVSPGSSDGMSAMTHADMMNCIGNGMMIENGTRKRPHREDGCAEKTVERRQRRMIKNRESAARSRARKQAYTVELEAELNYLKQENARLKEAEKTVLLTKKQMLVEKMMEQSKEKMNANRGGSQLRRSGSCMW
Description: split reporter; BiFC with EYFP halves, transient co-expression in rice protoplasts, 12-16 h in W5 solution in darkness, confocal microscopy, NLS-mCherry as nucleus marker.

These are yes or no findings as the source states them, for the method shown. In cells and extracts the contact can be indirect. Binding can be weak; no strength is given. Tags and fused reporters may be left off the sequences shown.

The text below walks through data of PMC8001349.

“Kelch repeat domain of OsKEAP1 (OsKelch) fused to nEYFP (from UniProt Q5VQH0) (domain or fragment)”: the binding result is listed as “binds”.
